Literature values as cited in patent publication US20110293746A1, “Modulation of Gsk-3Beta and Method of Treating Proliferative Disorders” (Agency For Science, Technology and Research, priority 2004, published 2011).

Test system: GSK-3α and GSK-3β
Settings: in vitro, Coghlan et al. 2000; cited from earlier work

In the case of `O=C1NC(=O)C(c2ccccc2[N+](=O)[O-])=C1Nc1ccc(O)c(Cl)c1` [SB-415286], the “inhibition of GSK-3α versus GSK-3β” value is listed as “equally effective”.
